# In PubChem BioAssay AID1487 (National Center for Advancing Translational Sciences (NCATS), 2009):
# In all, about 200,000 compounds went through this assay and about 25 (0.01%) were called active. Inconclusive means that the source gave no clear call. Such entries were picked first, then a sample of the others. The call rests on the fitted dose curve; in most records, active means well fitted inhibition curve with a large enough effect in the signal ratio, with a control signal flat (not every such curve was filed as active); inconclusive means small, poorly fitted or top-dose-only effect, or effect the other way, or a change in a side signal; inactive means flat fitted curve, though single readings scatter; the % refers to the signal ratio. A potency beside an inconclusive call is a rough fit, not a confirmed value.
# Test: qHTS Assay for Modulators of Lamin A Splicing
# Conditions: HeLa LMNA splicing GFP/RFP minigene ratio, 48 h; ratio change, negative = inhibition: at 46.1 µM (top of the series) unless noted
# Procedure, shortened: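 S3 HeLa stable clones carrying a lamin A-EGFP splicing minigene plus DsRed2 were seeded at 600 cells/well in Opti-MEM with 2% FBS, pin-dosed and incubated 48 h at 37°C. Acumen cytometry (488 nm) gave the GFP/RFP total-intensity ratio.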
# On the % scale 0 is the no-effect control and ±100 the full control effect; potency means the concentration at half of the fitted maximal effect.
SMILES,"ratio change, negative = inhibition",Potency
COc1ccc(C)cc1NC(=O)CSc1nnc(-c2ccc(Br)cc2)o1,inactive,
CN(CC(=O)N1CCCC1)S(=O)(=O)c1ccc2ccccc2c1,inactive,
COc1ccc(OCC(O)CNC(=O)/C=C/c2cccc([N+](=O)[O-])c2)cc1 (stereo unspecified),inactive,
CC(Oc1ccc(Cl)cc1Cl)C(=O)N(C)c1ccccc1 (stereo unspecified),inconclusive: 26.2% [at 46 µM],
CCn1cc([N+](=O)[O-])c(C(=O)Nc2c(C)nn(Cc3cccc(F)c3)c2C)n1,inconclusive: 9.51%,
Cc1ccc(CN(C(=O)c2ccc(C(C)(C)C)cc2)c2ccccn2)o1,inconclusive: 5.6% [at 46 µM],
CC(C)CC(=O)Nc1ccc2nc(SCC(=O)N3CCc4ccccc43)sc2c1,inconclusive: -18.9% [at 46 µM],
CN1C(=O)NC(c2cccc(O)c2)C(C(=O)c2cccs2)C1(O)C(F)(F)F (stereo unspecified),inactive,
Cc1ccnc2nc(C(=O)OCC(=O)N(CC(C)C)CC(C)C)nn12,inconclusive: -10.9% [at 46 µM],
COC(=O)c1ccc(COc2ccc(-c3nnn(CC(=O)NC(C)(C)C)n3)cc2)cc1,inconclusive: 5.95%,
O=C(NO)C1CC2C=CC1C2 (stereo unspecified),,"inconclusive: 10 µM [inhibitor, partial curve]"
Nc1nnc(SCC(=O)Nc2sc3c(c2C(=O)c2ccccc2)CCCC3)s1,,"inconclusive: 14.1 µM [falling, partial curve]"
S=c1[nH]nc(-c2cccs2)n1Cc1ccccc1,inconclusive: 4.06% [at 46 µM],
COC(=O)C1=C(C)NC(=S)NC1c1ccc(-c2ccccc2C(=O)OC)o1 (stereo unspecified),inactive,
CSc1nc(NCCOC(C)=O)c(C#N)c(-c2ccc(C(C)(C)C)cc2)n1,inactive,
Cc1ccc2c(CSc3nnc(N)s3)cc(=O)oc2c1,inactive,
Clc1ccc(OCCCCN2CCc3ccccc3C2)cc1,inconclusive: -15.7% [at 46 µM],
COc1ccc(C(C#N)c2ccc(Cl)nn2)cc1 (stereo unspecified),,"inconclusive: 1.26 µM [rising, single point]"
Clc1cccc(Cl)c1/C=N\Nc1nccs1,inactive,
COc1ccc(OC)c(C2SCCN2S(=O)(=O)c2cccc(C(F)(F)F)c2)c1 (stereo unspecified),,"inconclusive: 35.5 µM [falling, single point]"
O=C(CNC(=O)c1cc(=O)[nH]c2ccccc12)Nc1ccc(F)c(F)c1,inactive: 3.5% [at 9.22 µM],
CCOc1ccc(CNC(=O)CCC(=O)N2CC3CCCN3c3ccccc32)cc1 (stereo unspecified),inactive,
COc1ccc(N2C(=O)CSC2c2cccc(OC)c2OC)cc1 (stereo unspecified),inconclusive: -18.2%,
O=C(c1ccccc1)c1coc2c1C(=O)c1ccccc1C2=O,inconclusive: 120% [at 46 µM],
CCOCCCn1c(SCC(=O)NCc2ccc3c(c2)OCO3)nc2ccccc2c1=O,inconclusive: -32.9% [at 46 µM],
O=C(/C=C/c1cccc([N+](=O)[O-])c1)N1CCN(C(=O)c2ccco2)CC1,inconclusive: -1.63%,

# An excerpt of these results, as tab-separated lines:
SMILES	ratio change, negative = inhibition	Potency
CC(C)CC(=O)Nc1ccc2nc(SCC(=O)N3CCc4ccccc43)sc2c1	inconclusive: -18.9% [at 46 µM]	
CN1C(=O)NC(c2cccc(O)c2)C(C(=O)c2cccs2)C1(O)C(F)(F)F (stereo unspecified)	inactive	

# Later entries

SMILES,"ratio change, negative = inhibition",Potency
COCCn1c(SCC(=O)/C=C2\N(C)c3ccccc3C2(C)C)nnc1-c1ccncc1,,"inconclusive: 15.8 µM [falling, single point]"
COc1ccc(N=Cc2nc(-c3ccco3)oc2O)cc1,inactive,
CN1C(=O)CC(Sc2ccccc2C(=O)O)C1=O (stereo unspecified),inactive,
COc1cc(C)c(C(C)C)cc1S(=O)(=O)N1CCN(C)CC1,inactive,
COC(=O)c1cc(C#N)c(SCc2ccccc2)nc1C,inactive,
Cc1ccc(-c2nnn(CC(=O)N(c3cnc4ccccc4c3)C(C(=O)NC3CCCC3)c3ccncc3)n2)o1 (stereo unspecified),inconclusive: 80.5% [at 46 µM],
CCCCNC(=O)CSc1nc2cc3c(cc2c(=O)n1CCCC(=O)NCc1ccc2c(c1)OCO2)OCO3,inactive,
CCCn1c(C)cc(C(=O)CSc2nc3ccccc3c(=O)n2Cc2ccco2)c1C,,"inconclusive: 12.6 µM [falling, partial curve]"
CC(=O)c1cccc(NC(=O)C(Sc2ncnc3ccccc23)c2ccccc2)c1 (stereo unspecified),,"inconclusive: 10 µM [inhibitor, partial curve, poor fit]"
COc1ccccc1Cc1nc2ccccc2nc1SCC(=O)NCCc1ccccc1,inconclusive: -6.51% [at 46 µM],
Cc1ccc(NC(=O)CSc2nnc(Cc3cccn3C)n2-c2ccc(F)cc2)c(C)c1,inactive,
CCCSc1cc(N2CCN(C)CC2)nc(-c2ccc(OC)cc2)n1,inactive,
O=C(Nc1ccnc(-c2ccncc2)n1)C1CC1,inconclusive: 4.57% [at 9.22 µM],
CCOc1ccccc1N(C(=O)c1ccccc1Cl)C1=NC(C)(C)CS1,inconclusive: -11.9% [at 46 µM],
Cc1cc(C)cc(Nc2cc(=O)n(C3CCCCC3)c(=O)[nH]2)c1,inactive,
Cc1[nH]c(=O)[nH]c(=O)c1/C=C/C(=O)OCC(C)C,inconclusive: -19%,
CNC(=O)/C(=C\c1ccc([N+](=O)[O-])cc1)NC(C)=O,inconclusive: 7.69%,
CC(C)(C)c1ccc(CSC2=Nc3ccccc3C3=NC(CC(=O)NCc4cccs4)C(=O)N23)cc1 (stereo unspecified),,"inconclusive: 35.5 µM [cytotoxic, single point]"
CNC(=O)CN(c1ccc(C23CC4CC(CC(C4)C2)C3)cc1)S(C)(=O)=O,inconclusive: 2.46% [at 46 µM],
Cc1ccc(/C=N/NC(=O)CSc2nc3ccccc3c(=O)n2-c2ccccc2C)s1,inconclusive: -8.32%,
COc1cc2c(cc1OC)C(c1cccc([N+](=O)[O-])c1)N(C(=O)c1ccccc1C(=O)O)CC2 (stereo unspecified),inconclusive: 16.1% [at 46 µM],
Cc1ccc(NC(=O)C2SC(=Nc3ccccc3)C(C(=O)Nc3ccc(Cl)cc3)=C2N)cc1 (stereo unspecified),,"inconclusive: 35.5 µM [falling, single point]"
Cc1cc(N/N=C/c2ccc(O)cc2O)nc(-c2ccccc2O)n1,,"inconclusive: 35.5 µM [inhibitor, single point]"
COc1ccc2ccc3c(c2c1)N=CC1(O3)N(C)c2ccccc2C1(C)C (stereo unspecified),inconclusive: 0.693%,
Cn1c(SCC(=O)C(C)(C)C)nnc1-c1ccc(F)cc1,inconclusive: 16.4% [at 46 µM],
